Results from US20240182848A1, “SULFAMETHOXAZOLE-DEGRADING PSEUDOMONAS SILESIENSIS STRAIN, AND APPLICATION THEREOF” (CHINESE RESEARCH ACADEMY OF ENVIRONMENTAL SCIENCES, priority 2021, published 2024).

System: F6a strain
Experiment: Fate of SMX intermediate products during degradation by F6a strain (UPLC-QTOF-MS / HPLC/MS/MS)
Design: species or system Pseudomonas silesiensis
Details: 10 mg/L SMX, R2A medium, absorption peaks followed up to 336 h

## Nc1ccc(O)cc1 [C6, p-aminophenol]
  fate of intermediate product (mineralization) during SMX degradation: cannot be further mineralized into gas
